# Screen size: about 320,000 compounds; about 2,100 (0.66%) were called active. The inconclusive results got no clear call from the source; some entries with a clear call stand among them for comparison. Calls come from the whole dose curve; as a rule, active = well fitted inhibition curve with a large enough effect in the signal ratio, with a control signal flat (not every such curve was filed as active); inconclusive = small, poorly fitted or top-dose-only effect, or effect the other way, or a change in a side signal; inactive = flat fitted curve, though single readings scatter; the % refers to the signal ratio. Potencies beside an inconclusive call are fits to weak or partial responses and may not hold up.
# Test: qHTS Assay for Lipid Storage Modulators in Drosophila S3 Cells
# Settings: BODIPY lipid droplet fluorescence, 18-24 h, cells fed with added oleic acid; lipid storage change, negative = inhibition: at 46.1 µM (top of the series) unless noted
# In short: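 Drosophila S3 cells got compounds at several concentrations plus oleic acid (400 uM solution). Laser-scanning cytometry with 488 nm excitation read lipid droplets at 500-530 nm and cells at 575-640 nm. Percent activity was relative to 20 uM Triacsin C.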
# % is set by controls: 0 for no effect and ±100 for the full control effect; potency is the fitted concentration of half-maximal effect.
SMILES,"lipid storage change, negative = inhibition",Potency,outcome
CCOC(=O)c1cccc(NC(=O)CCn2c(=O)oc3ccccc32)c1,inconclusive: 15.2%,–,–
CSc1c(SCc2ccccc2)cnn(-c2ccccc2)c1=O,inconclusive: 84.5%,–,–
COc1ccc(CN2CCC(C(=O)Nc3ccc(Oc4cccnc4)cc3)CC2)c(C)c1C,inconclusive: -15%,–,–
ClC1(Cl)CC1Cn1cnc2ccccc21 (stereo not given),inconclusive: 5.73%,–,–
CCOC(=O)c1c(C)oc(NC(=O)COc2ccc(Cl)cc2C)c1C#N,inconclusive: -5.58%,–,–
COC(=O)CSc1[nH]c2ccccc2c1[N+](=O)[O-],inconclusive: -46.8%,–,–
Cc1ccc(SCc2c(C(=O)N/N=C/c3ccc4c(c3)OCO4)nnn2-c2nonc2N)cc1,–,"inconclusive: 29.1 µM [falling, single point]",–
O=C(N=C1SC2CS(=O)(=O)CC2N1c1ccc(Cl)cc1Cl)C1CC1 (stereo not given),inconclusive: 46.2%,–,–
NS(=O)(=O)c1cc(C(=O)OCC(=O)Nc2ccccc2[N+](=O)[O-])ccc1Cl,inconclusive: -23.7%,–,–
O=C(NC1=NCCS1)c1cccc(NC(=O)c2ccco2)c1,–,–,inactive [at 46.1 µM]
COc1ccc(-c2cc(C(=O)N3CCN(C(c4ccccc4)c4ccccc4)CC3)no2)cc1,inconclusive: -62.3%,–,–
CC(C)C(C(=O)NC1CCCC1)N(CC1CCCO1)C(=O)CNS(=O)(=O)c1ccc(F)cc1 (stereo not given),–,"inconclusive: 6.51 µM [falling, single point]",–
CCCOC(=O)CCCN1C(=O)/C(=C2\SC(=S)N(CCCC(=O)OCCC)C2=O)SC1=S,inconclusive: -27.2%,–,–
Cc1ccc(NC(=S)NCc2ccc3c(c2)cc(C)n3C)c(C)c1,inconclusive: 29.1%,–,–
O=C(Nc1ccc(S(=O)(=O)Nc2ncccn2)cc1)C(F)(F)F,–,"inconclusive: 29.1 µM [activator, single point]",–
CCN(CC)c1ccc(NC(=O)CSc2n[nH]c(-c3ccco3)n2)cc1,inconclusive,–,–
C=CCCC(=O)N(C)CCO,inconclusive: -4.38%,–,–
COc1ccccc1Nc1ncnc2c1oc1ccccc12,inconclusive: -41.5%,–,–
COc1cccc2sc3ccc(C#CC4(O)CCCCC4)cc3c(=O)c12,inconclusive: -52.1%,–,–
CCOCCn1c(SCc2ccc(C)cc2)nc2c1c(=O)[nH]c(=O)n2C,inconclusive: 50.2%,–,–
COC(=O)[C@H](Cc1ccccc1)NC(=O)NCc1cccs1,inconclusive: -12.6%,–,–
Cc1c(C)c2ccc(OCC(=O)c3ccccc3)cc2oc1=O,–,"inconclusive: 2.59 µM [falling, full curve, poor fit]",–
Cc1ccc(C2N=C(N)Nc3nc4ccccc4n32)cc1 (stereo not given),inconclusive: 1.15%,–,–
CCCCOc1cccc(C(=O)NC(=S)Nc2cccc(NC(=O)c3ccccc3Cl)c2)c1,–,"inconclusive: 4.11 µM [activator, single point]",–
Fc1ccc(Cn2cc(C(=S)N3CCOCC3)c3ccccc32)cc1,inconclusive: 5.61%,–,–
COc1ccc(Cc2nnc(SCC(=O)Nc3cc(Cl)ccc3C)[nH]c2=O)cc1,inactive: 19.4%,–,–
COc1ccc(N(Cc2cc3cccc(C)c3[nH]c2=O)S(C)(=O)=O)cc1,–,"inconclusive: 29.1 µM [rising, single point]",–

SMILES,"lipid storage change, negative = inhibition",Potency,outcome
O=S(=O)(NCc1ccccc1)c1ccc(Br)c2nsnc12,inconclusive: 33.5%,–,–
Cc1cc(Br)ccc1NC(=O)CN(C)C(=O)c1ccc(-n2cncn2)c([N+](=O)[O-])c1,–,"inconclusive: 29.1 µM [falling, single point]",–
O=C1CC(C(=O)N2CCCc3ccccc32)CN1c1ccc(Cl)cc1 (stereo not given),inconclusive: 23.5%,–,–
O=C(Nc1ccc(S(=O)(=O)C(F)F)cc1)c1ccc2c(=O)n3c(nc2c1)CCC3,inconclusive: 33.7%,–,–
O=C(COC(=O)Cc1ccsc1)Nc1cccc(Cl)c1,inconclusive: 23%,–,–
CC(C)CN(C(=O)COC(=O)c1ccc2c(c1)NC(=O)CS2)C1CCS(=O)(=O)C1 (stereo not given),inconclusive: -2.18%,–,–
COc1ccc(Nc2nc(-c3cccc([N+](=O)[O-])c3)nc3ccccc23)cc1,–,"inconclusive: 0.58 µM [activator, single point]",–
COc1ccccc1NS(=O)(=O)c1cccc(N2CC(O)=C(c3ccccc3)C2=N)c1,inconclusive: -25.3%,–,–
Cc1ccc(OCC(=O)Nc2ccc(S(=O)(=O)N3CCOCC3)cc2)c([N+](=O)[O-])n1,inconclusive: -31.5%,–,–
COc1ccc(-n2c(C)nc3c(cnn3-c3ccccc3)c2=O)cc1,inconclusive: -14.2%,–,–
O=C(Nc1ccc(CN2CCOCC2)cc1)c1ccc(Cl)cc1,inconclusive: -44.9%,–,–
O=[N+]([O-])c1cccc(S(=O)(=O)N/N=C\c2ccc3c(c2)OCO3)c1,inactive: -28.7%,–,–
COC(=O)c1cc(OC)c(OC)cc1NC(=O)c1csc(C)c1,–,"inconclusive: 18.4 µM [activator, partial curve]",–
COc1ccc(NS(=O)(=O)c2cccc(C(=O)NCc3ccco3)c2)cc1,inconclusive: 11.6%,–,–
COc1ccc(CNC(=O)CSc2nc3ccc(C)cc3[nH]2)cc1,inconclusive: 27%,–,–
CCCCN=C(C)C1=C(O)CSC1=O,inconclusive: 109%,–,–
COc1ccc(CNC(=O)c2ccc(CS(=O)(=O)c3ccccc3C)o2)cc1,inconclusive: -24.1%,–,–
CCOC(=O)C1CCN(S(=O)(=O)c2cccc(-c3cn4cccc(C)c4n3)c2)CC1,inconclusive: 113%,–,–
O=C(CCCn1cc([N+](=O)[O-])cn1)Nc1cccnc1,inconclusive: 8.02%,–,–
CC(C)(C)NC(=O)C(=O)NN=C1CCCCCCC1,–,"inconclusive: 29.1 µM [falling, single point]",–
CC(Oc1ccc2c3c(c(=O)oc2c1)CCCC3)C(=O)NC1CC(C)(C)NC(C)(C)C1 (stereo not given),inconclusive: 52.4%,–,–
CC(C)C(C)NC(=O)CSc1ccc(S(=O)(=O)N2CCOCC2)cn1 (stereo not given),inconclusive: -13.2%,–,–
O=C(c1ccc([N+](=O)[O-])cc1)N1CCN(C2=NS(=O)(=O)c3ccccc32)CC1,inconclusive: 10.8%,–,–
O=S1(=O)CCN(C(CCO)c2cccc(C(F)(F)F)c2)CC1 (stereo not given),–,"inconclusive: 0.259 µM [falling, full curve, poor fit]",–
CNC(=O)C1CCN(S(=O)(=O)c2c(C)noc2/C=C/c2cccc(OC)c2)CC1,–,"inconclusive: 18.4 µM [falling, single point]",–
COc1cccc(-n2nc(C(=O)NCC3CCCO3)c3ccccc3c2=O)c1 (stereo not given),inconclusive: 33.4%,–,–
COc1cc(C(=O)Nc2cc3c(cc2N2CCCCC2)n(C)c(=O)n3C)cc(OC)c1OC,inconclusive: 66%,–,–

SMILES,"lipid storage change, negative = inhibition",Potency,outcome
Cc1cc(OCC(O)CN2CCN(C)CC2)ccc1C(C)C (stereo not given),inconclusive: 45.6%,–,–
COc1ccccc1Oc1ccc2c(c1)C(=O)N(c1ccc(C)cc1)C2=O,inconclusive: 52.5%,–,–
CC(C(=O)OCC(=O)c1ccc(F)cc1)N1C(=O)C2C3C=CC(C3)C2C1=O (stereo not given),inconclusive: -22.7%,–,–
CC(/C=C/c1ccccc1)=N/NC(=O)C(O)c1ccccc1 (stereo not given),inconclusive: 75.6%,–,–
Cc1nc2ccc(NS(=O)(=O)c3c(C)c(C)cc(C)c3C)cc2s1,–,"inconclusive: 2.06 µM [rising, partial curve]",–
Cc1sc2nc(SCC(=O)NCCOCCO)nc(N)c2c1C,–,"inconclusive: 0.82 µM [falling, full curve, poor fit]",–
CC(=O)N1CCN(c2nc3ccc([N+](=O)[O-])cc3s2)CC1,–,–,inactive [at 46.1 µM]
CC[n+]1c(/C=C/N(C)c2ccccc2)oc2ccc(F)cc21,–,active: 25.9 µM,–
O=[N+]([O-])c1ccc(C2CCCC/C2=N/O)c([N+](=O)[O-])c1 (stereo not given),inconclusive: 4.83%,–,–
O=C(/C=C/N1CCOCC1)c1cc2ccccc2o1,inconclusive: 49%,–,–
O=C(NCC(=O)N1CCN(S(=O)(=O)c2ccccc2F)CC1)c1ccc(Br)o1,inconclusive: 83.5%,–,–
CC(C)C(c1nnnn1Cc1ccccc1)N(Cc1ccco1)Cc1cccs1 (stereo not given),inconclusive: 13.8%,–,–
CC(C)C(=O)NC(=S)Nc1c(Cl)ccc2nsnc12,inconclusive: 4.94%,–,–
O=C(CCCC(=O)NC1CCCCC1)Nc1ccc([N+](=O)[O-])cc1,inconclusive: 3.41%,–,–
O=C(Nc1cccc(Cl)c1)N1CCN(Cc2ccccc2)CC1,inconclusive: 17.5%,–,–
O=C(Nc1nnc(CC(=O)N2CCOCC2)s1)C1COc2ccccc2O1 (stereo not given),inconclusive: 0.221%,–,–
CCc1ccc(NC2=NC(C(=O)c3ccccc3)CC(=O)N2)cc1 (stereo not given),inconclusive: -9.31%,–,–
CC(=O)OCCn1c(C)[n+](CCOC(C)=O)c2cc(Cl)c(Cl)cc21,inactive: 3.84%,–,–
CCN(Cc1nc2ccccc2n1C)c1ccccc1,–,"inconclusive: 29.1 µM [activator, single point]",–
CCc1nnc(NC(=O)CCC(=O)N2CCN(Cc3ccc(OC)c(F)c3)CC2)s1,inconclusive: -36.2%,–,–
CN1CCN(C(=O)N2CCNC2=O)CC1,–,"inconclusive: 23.1 µM [falling, single point]",–
C=C(C)Cn1c(SCC)nc2ccccc2c1=O,inconclusive: 62.4%,–,–
Cc1cc(C)nc(N2CCC(C(=O)NC3CCCc4ccccc43)CC2)n1 (stereo not given),–,"inconclusive: 6.51 µM [falling, single point]",–
CC(C)c1cc[n+](-c2nc([O-])sc2C=O)cc1,–,"inconclusive: 0.651 µM [falling, full curve, poor fit]",–
COc1ccccc1CNC(=O)Cn1cnc2ccccc2c1=O,inconclusive: 1.98%,–,–
O=C(CCN1C(=O)c2ccc([N+](=O)[O-])cc2C1=O)Nc1ccc(O)cc1C(=O)O,inconclusive: -51.8%,–,–

# 23 entries from above, with tabs.
SMILES	lipid storage change, negative = inhibition	Potency	outcome
Cc1cc(OCC(O)CN2CCN(C)CC2)ccc1C(C)C (stereo not given)	inconclusive: 45.6%	–	–
COc1ccccc1Oc1ccc2c(c1)C(=O)N(c1ccc(C)cc1)C2=O	inconclusive: 52.5%	–	–
CC(C(=O)OCC(=O)c1ccc(F)cc1)N1C(=O)C2C3C=CC(C3)C2C1=O (stereo not given)	inconclusive: -22.7%	–	–
CC(/C=C/c1ccccc1)=N/NC(=O)C(O)c1ccccc1 (stereo not given)	inconclusive: 75.6%	–	–
Cc1nc2ccc(NS(=O)(=O)c3c(C)c(C)cc(C)c3C)cc2s1	–	inconclusive: 2.06 µM [rising, partial curve]	–
Cc1sc2nc(SCC(=O)NCCOCCO)nc(N)c2c1C	–	inconclusive: 0.82 µM [falling, full curve, poor fit]	–
CC(=O)N1CCN(c2nc3ccc([N+](=O)[O-])cc3s2)CC1	–	–	inactive [at 46.1 µM]
CC[n+]1c(/C=C/N(C)c2ccccc2)oc2ccc(F)cc21	–	active: 25.9 µM	–
O=[N+]([O-])c1ccc(C2CCCC/C2=N/O)c([N+](=O)[O-])c1 (stereo not given)	inconclusive: 4.83%	–	–
O=C(/C=C/N1CCOCC1)c1cc2ccccc2o1	inconclusive: 49%	–	–
CC(C)C(c1nnnn1Cc1ccccc1)N(Cc1ccco1)Cc1cccs1 (stereo not given)	inconclusive: 13.8%	–	–
CC(C)C(=O)NC(=S)Nc1c(Cl)ccc2nsnc12	inconclusive: 4.94%	–	–
O=C(CCCC(=O)NC1CCCCC1)Nc1ccc([N+](=O)[O-])cc1	inconclusive: 3.41%	–	–
O=C(Nc1cccc(Cl)c1)N1CCN(Cc2ccccc2)CC1	inconclusive: 17.5%	–	–
O=C(Nc1nnc(CC(=O)N2CCOCC2)s1)C1COc2ccccc2O1 (stereo not given)	inconclusive: 0.221%	–	–
CCc1ccc(NC2=NC(C(=O)c3ccccc3)CC(=O)N2)cc1 (stereo not given)	inconclusive: -9.31%	–	–
CCN(Cc1nc2ccccc2n1C)c1ccccc1	–	inconclusive: 29.1 µM [activator, single point]	–
CCc1nnc(NC(=O)CCC(=O)N2CCN(Cc3ccc(OC)c(F)c3)CC2)s1	inconclusive: -36.2%	–	–
CN1CCN(C(=O)N2CCNC2=O)CC1	–	inconclusive: 23.1 µM [falling, single point]	–
Cc1cc(C)nc(N2CCC(C(=O)NC3CCCc4ccccc43)CC2)n1 (stereo not given)	–	inconclusive: 6.51 µM [falling, single point]	–
CC(C)c1cc[n+](-c2nc([O-])sc2C=O)cc1	–	inconclusive: 0.651 µM [falling, full curve, poor fit]	–
COc1ccccc1CNC(=O)Cn1cnc2ccccc2c1=O	inconclusive: 1.98%	–	–
O=C(CCN1C(=O)c2ccc([N+](=O)[O-])cc2C1=O)Nc1ccc(O)cc1C(=O)O	inconclusive: -51.8%	–	–
